Results are given in words; binding and its absence hold for the method and conditions named. For part of these data: Binding calls can cover weak binding; strength is not graded here. For part of these data: Where a sequence is shown, tags or fusion partners need not be part of it. For part of these data: Binding seen in cells or lysates may run through a third protein.

Amino acid sequences for entries named in this document (tags omitted). A change or cut given only in a name is not applied to a line headed by its entry. Residues count along the entry.
UniProt P02769, residues 25-607: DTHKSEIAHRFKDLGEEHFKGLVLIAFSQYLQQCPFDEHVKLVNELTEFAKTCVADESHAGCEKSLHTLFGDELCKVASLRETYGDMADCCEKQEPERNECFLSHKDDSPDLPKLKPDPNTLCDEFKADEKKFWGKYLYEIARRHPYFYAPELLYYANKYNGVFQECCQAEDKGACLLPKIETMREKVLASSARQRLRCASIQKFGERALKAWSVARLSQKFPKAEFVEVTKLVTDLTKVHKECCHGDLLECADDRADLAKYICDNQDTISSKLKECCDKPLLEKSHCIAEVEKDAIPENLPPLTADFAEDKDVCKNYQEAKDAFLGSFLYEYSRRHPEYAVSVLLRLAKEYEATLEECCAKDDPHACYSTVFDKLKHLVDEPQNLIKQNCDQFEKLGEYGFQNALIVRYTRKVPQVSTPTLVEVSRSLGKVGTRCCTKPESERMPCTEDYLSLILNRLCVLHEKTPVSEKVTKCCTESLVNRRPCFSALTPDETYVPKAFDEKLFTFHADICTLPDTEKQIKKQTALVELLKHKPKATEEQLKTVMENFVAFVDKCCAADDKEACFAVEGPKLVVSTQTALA
UniProt Q257C6: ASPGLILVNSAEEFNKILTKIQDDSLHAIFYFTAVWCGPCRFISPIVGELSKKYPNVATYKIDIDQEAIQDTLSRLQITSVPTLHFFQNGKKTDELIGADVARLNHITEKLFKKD

One substance from article PMC8698322 can be followed below.

The target of assay [1] is T1, recombinant human ATG4B, His-tagged (His-HsATG4B) (human) (UniProt Q9Y4P1).
T1 sequence: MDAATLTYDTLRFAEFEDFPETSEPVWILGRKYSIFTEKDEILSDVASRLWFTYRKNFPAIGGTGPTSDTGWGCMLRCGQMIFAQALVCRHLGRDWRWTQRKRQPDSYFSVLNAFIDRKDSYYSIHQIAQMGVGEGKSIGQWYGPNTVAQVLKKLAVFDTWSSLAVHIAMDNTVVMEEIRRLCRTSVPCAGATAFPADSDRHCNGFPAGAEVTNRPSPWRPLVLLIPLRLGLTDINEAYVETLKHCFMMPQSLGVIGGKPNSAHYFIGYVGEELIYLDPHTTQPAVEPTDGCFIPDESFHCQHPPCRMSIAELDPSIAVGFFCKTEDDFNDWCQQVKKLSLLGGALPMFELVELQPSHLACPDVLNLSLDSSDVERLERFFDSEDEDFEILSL
As to the kind of experiment: far-Western, overlay or dot blot; PsTRXo1 (1.5 µg), HsATG4B (2.3 µg) and BSA (1.5 µg) spotted on membranes, blocked in TBST (25 mM Tris-HCl pH 7.5, 1% BSA, 0.1% Tween-20), overlaid with 0.2 µg PsTRXo1 or 0.1 µg HsATG4B in TBST for 2 h at room temperature; detected with anti-PsTRXo1 or anti-CrATG4B; both purified.

In assay [2] the target is bovine serum albumin (bovine) (UniProt P02769). Described as above.
Assay [3] concerns the target T1, recombinant human ATG4B, His-tagged (His-HsATG4B) (human). Briefly: co-IP; 4 µg His-HsATG4B and 8 µg PsTRXo1 in 500 µL kit lysis buffer, µMACS Anti-His MicroBeads, 2 h at 4 °C; eluate blotted with anti-His, then with anti-PsTRXo1; both purified.

For “recombinant pea thioredoxin o1 (PsTRXo1) (from UniProt Q257C6)”, the binding entry was “binds” in assay [1], “no binding (tested: 0.2 µg of recombinant PsTRXo1 overlaid)” in assay [2] and “binds” in assay [3].
